Earlier results, collected in US20250115648A1 (priority 2013, published 2025).

Details: cited from earlier work

O=C([O-])COc1cc(NC(=O)c2ccc3c(c2)C(=O)OC32c3cc(Cl)c([O-])cc3Oc3cc([O-])c(Cl)cc32)ccc1N(CC(=O)[O-])CC(=O)[O-].[K+].[K+].[K+].[K+].[K+] [Magnesium Green]
Peak Abs. (peak absorbance wavelength of exemplary fluorescent reporter molecule): 506 nanometers
Peak Em. (peak emission wavelength of exemplary fluorescent reporter molecule): 530 nanometers
